Test results: PubChem BioAssay AID1508600 (Functional Genomics Laboratory (NCATS/FGL), 2020)
Out of some 53,000 sequences screened, about 3,700 (7%) were called active.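 The calls were made as follows: active = gene knockdowns whose robust z-score for IL-1 alpha signal is at least 2 or at most -2, so actives lie on both sides; inactive = the rest.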 The list shows a part of the results.

Assay: Components of the Cytosolic LPS Sensing Pathway: Gene Identification via Genome-wide siRNA Screen;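 also: robust z of the log signal after scaling to non-targeting control siRNA wells of the plate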
Details: RAW264.7 macrophages, IL-1a HTRF, actives lie on both sides, screened at 100 nM (by protocol), cells primed 5 h with Pam3CSK4 first
In short: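 Knockdown: 100 nM siRNA, 48h, RAW264.7. Stimulation: Pam3CSK4 5 h, then LipidA via TransIT-TKO 24 h. Output: supernatant IL-1a HTRF, negative-control-normalized, log robust z-score; viability by CellTiter-Glo.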

Row | Sequence | z-score
1 | GGAGAAGACUAUAAGCUUATT against Rxylt1 | inactive: 1.21
2 | CCGAUUAGAAAAGACCAAATT against Ccdc25 | inactive: 0.727
3 | GCUUUGAGACUAGAUGUGGTT against Kirrel3os | inactive: -0.745
4 | CGAUUACACUAGCAAGAAATT against Bche | inactive: -0.0718
5 | GCUGGACCACUGCAAUAUUTT against Gsk3a | inactive: -1.08
6 | GGCAGCUUCAGGAACCAAUTT against Krt5 | active: -2
7 | GGGACAUUUCAGAUUGUAUTT against Thumpd1 | inactive: -1.31
8 | GCAAAACAUGAGCUUAAACTT against Spcs1 | inactive: -0.241
9 | GCAGCAGCAAAUGUUCUAUTT against Olfr384 | inactive: 0.763
10 | GGAGUAUGGAACAAGCCAGTT against Plxnb3 | inactive: -0.372
11 | CCUUGACCUUAAUGUCUUCTT against Fgf23 | active: 2.05
12 | GGGAGAUCACCACCAUCCUTT against Bsx | inactive: -1.79
13 | GGAGUUACCAAUUUUGAAATT against Txndc12 | inactive: 0.0872
14 | CGACUAACAAAUUUGGUGATT against Tfec | inactive: -0.353
15 | GCAGUUGUACUGCUAGAAATT against Oprl1 | inactive: 1.52
16 | GGGAAGAAGAAAUACUGCGTT against Gzmg | inactive: 1.76
17 | CCGUCACACAACACUGAUGTT against Ctla4 | inactive: -0.0386
18 | GGAGUUUGGUAAAAUUGACTT against Dhrs7 | inactive: -1.7
19 | GGUUUUCUGCAUAGAUUUUTT against Sgtb | inactive: 1.01
20 | GGAGCUGAUUCUGAUGAAGTT against Fbxo31 | inactive: -0.577
21 | CGUGAUCGUGCGUUCCAACTT against Chrnb4 | active: 3.11
22 | GGUCUUCGUGCUUUGUCAUTT against Slco2a1 | inactive: -1.99

Row | Sequence | z-score
23 | GGUUCUUUCGAGAAUGGACTT against Nod1 | inactive: -0.145
24 | GGAUGCAACUAAAAUCAGCTT against Vstm2b | inactive: -0.567
25 | GCAGUAUCUACAAGAGGAGTT against Septin12 | inactive: 1.13
26 | GUGCCUAGUUUUCUGCAUGTT against Vmn1r85 | inactive: 0.309
27 | GGGAUAGCUCUGCUCAGCATT against Olfr821 | inactive: -0.771
28 | GGGACAAAGGUGUGAACUCTT against Dpysl4 | inactive: 0.0855
29 | GGAGAUUUCCUGUAACUUUTT against Osbpl3 | inactive: 0.369
30 | GGACAGAAAGCAAAGGCACTT against Mchr1 | inactive: -1.12
31 | GGUUGAUCUGCAUUUUAUGTT against Slc4a10 | inactive: -0.223
32 | GCGACAAGAGGCUUUAGCATT against Selenos | inactive: 0.692
33 | GCAAUCGAUGCAUUUAAUGTT against Pex5l | inactive: 0.253
34 | GGGACUCUAAAAACAAUGATT against Zkscan14 | active: 2.67
35 | GCAUGGAGAGAACCUGAAATT against Trim69 | inactive: -0.801
36 | GCUCAUGUAGGAUGUAUAUTT against Olfr146 | inactive: -0.483
37 | GGAGUUAUGUUAUACCUCCTT against Dazl | inactive: 1.57
38 | GGCCGUCACUACUCUGAAATT against Mgst2 | active: -2.29
39 | GGAGCACCAUUUCAGGAUATT against Cfap43 | inactive: 0.691
40 | GCACUUGUCUUGAUUACAUTT against Fbxo4 | inactive: 1.08
41 | CGUGUCGCACAGGUACUUUTT against Ccnq | inactive: -1.71
42 | GGACGGUGACAAGAACAACTT against Tnnc1 | inactive: 1.72
43 | GGUCAUGACCCAUGUCAGCTT against Junb | inactive: -0.699
44 | CCAUCUCCUUAUGGGCAAUTT against Stat6 | inactive: 1.59

Row | Sequence | z-score
45 | CGAUGAGAGUCCACUCCCATT against Cox18 | active: -3.19
46 | GGAAUGACAAGAUUAUUGUTT against Ercc3 | inactive: 0.157
47 | CCAUGCAUCUAAGUCUCGATT against Trpm3 | inactive: 0.625
48 | CCGUGACCUAUAACGAAGATT against Fcf1 | inactive: -0.967
49 | GGAAUACAGGUUUUCUUAATT against Raf1 | inactive: 0.0212
50 | CCCAGAGCAUUCCUAUUACTT against Klrg2 | active: -2.84
51 | GGUUUUAGAGGAGUUCUCCTT against Nectin1 | inactive: -0.652
52 | GGAGAGGACUGUAAAGUGCTT against Tafa4 | inactive: 1.52
53 | GCAAGUUCGAAUCCUCCGUTT against Dach2 | active: 4.72
54 | GGGACAAAACCUUGACAGUTT against Vmn1r214 | inactive: 0.181
55 | GAAAGACAAGAAGCAGAUGTT against Olig2 | inactive: 1.05
56 | CCGGUGGUAGUUGGUUUAATT against Atp1b1 | inactive: 1.55
57 | CCGAAGCAUUUUCCCAUCUTT against Slc22a20 | inactive: -0.293
58 | CCUCUGUUUGUGCGCCAUATT against Uqcrfs1 | inactive: 0.402
59 | CCCAUAUUUGUGGUAAACATT against Pcdh17 | inactive: 0.245
60 | GGACAAUUUAACCAUCGUGTT against Tspan5 | inactive: 0.939
61 | GGGUAAACACCCAUUUAGCTT against Lbx2 | inactive: -0.156
62 | GGUUACCUACCUGAUGCCATT against Cd6 | inactive: -0.0761
63 | GGAUUGUACGCUUUUAUGATT against Fzd1 | inactive: 0.92
64 | CGUAGUCGAUUCAGGAGAGTT against Gm10439 | inactive: -0.356
65 | GCAGUCUGGUUCUCUCAAATT against Cryl1 | inactive: 1.13
66 | GGACUCAUGUUCAACACAGTT against Dimt1 | inactive: -0.87

Row | Sequence | z-score
67 | CGCUAGUUUGGACGGUUUUTT against Odf3 | inactive: 0.523
68 | CCUACUAGAUUCCUACUUUTT against Cenpo | inactive: 1.65
69 | CCCUAGGCCUUUUUUCUGCTT against Olfr930 | inactive: 0.0834
70 | GGUGAAAAGCAGCUAACAATT against Fam135a | inactive: -1.6
71 | GGACAAGUACCAGCAGCAGTT against Spry2 | inactive: 0.332
72 | CCCUAGAAUGGGAAUGUCATT against Tmem116 | inactive: -0.407
73 | GGCUGUGCAUACCAUGUUGTT against Dse | inactive: 0.181
74 | GGCCGAUUGUUGGACAUUCTT against Card11 | inactive: 0.00438
75 | GGAUAUCAAUAGCCUCAACTT against Stx5a | inactive: -0.804
76 | GGAAUUCAAGGGCUCCACATT against Grip1 | inactive: 0.378
77 | CCUCAAACUCGGUUUGAUUTT against Acp6 | inactive: -0.773
78 | GGAGUUUCAGAGCAAGCAGTT against Atp6v1g2 | inactive: 1.73
79 | GCGUGACGAGCUAACAGAATT against Stac2 | inactive: -0.178
80 | GGUUUGUGACAUUAUCUGCTT against Wrnip1 | active: 2.36
81 | GGUGUCAGUAUUUCCUUCATT against Spg11 | inactive: -0.177
82 | GGGCAGCUACGUCAUUAAGTT against Prkg2 | inactive: -0.442
83 | GGACGAGGUAGCUUAUUGCTT against Pnn | inactive: -0.606
84 | GGGUGUGAUGGUUCUCACCTT against Olfr777 | inactive: 0.156
85 | CGAUGAUACAGACAGCAACTT against Wipf2 | inactive: -0.386
86 | GGUCCCAUAUACCAGAUCUTT against Slc3a1 | inactive: 1.63
87 | GGUGUCCAAUUGCCCUAUCTT against Tnfrsf12a | inactive: -1.98
88 | GCGCCUUAUGCAGGAAUACTT against Rabgap1 | inactive: -1.36

Row | Sequence | z-score
89 | GGGUCCAUCAAGAAUUCUCTT against Rab5c | inactive: 0.93
90 | GCCACCACCAUAAAUAUAUTT against Rspo3 | inactive: -1.5
91 | GCAAAAUCACGCUAACGACTT against Uts2 | inactive: 0.0748
92 | GCUGGGUCAAACAUGACGUTT against Klhl17 | inactive: 0.452
93 | GGAUGAUAUCGGAGCCUGCTT against Clec4g | inactive: 0.392
94 | GGUCCUGUUGAGAAUUUAATT against Zdhhc15 | inactive: 0.464
95 | CCAACUGUUGGUGAUGAUGTT against Cpsf6 | active: -2.05
96 | GGGUAAUAGGCACAGACCATT against Ooep | inactive: -0.673
97 | GGUUGGAGUUAUAGAUUUUTT against Rufy3 | inactive: 1.42
98 | GGCCAGAUCACCAAGAUUCTT against Dcaf12 | inactive: -0.522
99 | GGCUCCUCAAAGCUAAAAATT against 1700001C19Rik | inactive: 1.24
100 | CGACUACUGCCUGAACUCUTT against Gsdmc3 | inactive: 0.446
101 | GGCAUUCUUUGGGAAGUAGTT against Slc9a2 | inactive: -0.813
102 | CGCUUUACCUUCCCGUUUATT against Xkrx | inactive: -1.71
103 | GCUUUUUCUACGCGUCUCATT against 1700084P21Rik | inactive: -1.12
104 | GGAAGCCAUGUUUGGAAGATT against Lce1c | inactive: -1.26
105 | GGAAUCGCCAUCUGCAUCUTT against Cyyr1 | inactive: 0.358
106 | GCAUUUCACCUGGAGCCUUTT against Zfp108 | inactive: -1.11
107 | GGGAAACUCAAACUGAUUGTT against 9930104L06Rik | inactive: 0.0417

Some of the entries so far, with tabs:
Row	Sequence	z-score
87	GGUGUCCAAUUGCCCUAUCTT against Tnfrsf12a	inactive: -1.98
88	GCGCCUUAUGCAGGAAUACTT against Rabgap1	inactive: -1.36
89	GGGUCCAUCAAGAAUUCUCTT against Rab5c	inactive: 0.93
90	GCCACCACCAUAAAUAUAUTT against Rspo3	inactive: -1.5
91	GCAAAAUCACGCUAACGACTT against Uts2	inactive: 0.0748
92	GCUGGGUCAAACAUGACGUTT against Klhl17	inactive: 0.452
93	GGAUGAUAUCGGAGCCUGCTT against Clec4g	inactive: 0.392
94	GGUCCUGUUGAGAAUUUAATT against Zdhhc15	inactive: 0.464
95	CCAACUGUUGGUGAUGAUGTT against Cpsf6	active: -2.05
96	GGGUAAUAGGCACAGACCATT against Ooep	inactive: -0.673
97	GGUUGGAGUUAUAGAUUUUTT against Rufy3	inactive: 1.42
98	GGCCAGAUCACCAAGAUUCTT against Dcaf12	inactive: -0.522
99	GGCUCCUCAAAGCUAAAAATT against 1700001C19Rik	inactive: 1.24
100	CGACUACUGCCUGAACUCUTT against Gsdmc3	inactive: 0.446
101	GGCAUUCUUUGGGAAGUAGTT against Slc9a2	inactive: -0.813
102	CGCUUUACCUUCCCGUUUATT against Xkrx	inactive: -1.71
103	GCUUUUUCUACGCGUCUCATT against 1700084P21Rik	inactive: -1.12
104	GGAAGCCAUGUUUGGAAGATT against Lce1c	inactive: -1.26
105	GGAAUCGCCAUCUGCAUCUTT against Cyyr1	inactive: 0.358
106	GCAUUUCACCUGGAGCCUUTT against Zfp108	inactive: -1.11
107	GGGAAACUCAAACUGAUUGTT against 9930104L06Rik	inactive: 0.0417
